These are yes or no findings as the source states them, for the method shown. Some binding calls cover weakened binding; strength is not graded here.
Target: BSA-RhB conjugate (bovine) (UniProt P02769)
Test: zeta potential and DLS of peptide/protein mixtures at molar ratios 1 to 25

By UniProt entry, the sequences of proteins in these tests, tags left out. Residues count along the entry.
UniProt P02769, residues 25-607: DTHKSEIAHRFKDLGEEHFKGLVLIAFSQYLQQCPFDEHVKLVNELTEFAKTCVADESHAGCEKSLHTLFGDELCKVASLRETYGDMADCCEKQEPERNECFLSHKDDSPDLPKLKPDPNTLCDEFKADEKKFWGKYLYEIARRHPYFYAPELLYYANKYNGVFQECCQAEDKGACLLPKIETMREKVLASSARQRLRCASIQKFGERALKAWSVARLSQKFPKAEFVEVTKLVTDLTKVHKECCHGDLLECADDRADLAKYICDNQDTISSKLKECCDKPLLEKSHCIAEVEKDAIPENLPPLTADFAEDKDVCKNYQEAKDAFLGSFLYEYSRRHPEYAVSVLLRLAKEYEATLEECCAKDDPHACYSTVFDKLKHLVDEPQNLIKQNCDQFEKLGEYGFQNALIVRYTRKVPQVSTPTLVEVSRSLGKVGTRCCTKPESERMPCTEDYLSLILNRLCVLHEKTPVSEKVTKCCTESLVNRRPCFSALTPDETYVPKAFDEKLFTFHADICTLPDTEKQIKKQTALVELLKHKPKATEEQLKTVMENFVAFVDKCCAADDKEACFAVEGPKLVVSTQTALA

Binder: KKLFKKILKYLKHKHKHKHKHKHKHKHKH [BP100(KH)9]
- binding: binds
